No constants are given. Whether binding was seen depends on the method and setting. In cells and extracts the contact can be indirect. Some results given as binding are weak or reduced against the parent protein; the word gives no strength. Sequences can lack the tags named with a protein.
T1: mature human LOX (LOX 36H), from construct pcLOX36-V5His (human) (UniProt P28300)
T1 sequence: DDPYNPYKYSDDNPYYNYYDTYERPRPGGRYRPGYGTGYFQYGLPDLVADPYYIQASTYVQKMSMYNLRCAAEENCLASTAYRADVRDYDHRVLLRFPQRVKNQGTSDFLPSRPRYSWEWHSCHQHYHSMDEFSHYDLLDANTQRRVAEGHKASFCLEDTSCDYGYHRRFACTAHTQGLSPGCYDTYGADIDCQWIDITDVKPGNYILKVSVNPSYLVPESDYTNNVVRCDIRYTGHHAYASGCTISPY

T2: mature murine LOX (LOX 27H), from construct pcLOX27-V5His (murine) (UniProt P28301)
T2 sequence (looked up): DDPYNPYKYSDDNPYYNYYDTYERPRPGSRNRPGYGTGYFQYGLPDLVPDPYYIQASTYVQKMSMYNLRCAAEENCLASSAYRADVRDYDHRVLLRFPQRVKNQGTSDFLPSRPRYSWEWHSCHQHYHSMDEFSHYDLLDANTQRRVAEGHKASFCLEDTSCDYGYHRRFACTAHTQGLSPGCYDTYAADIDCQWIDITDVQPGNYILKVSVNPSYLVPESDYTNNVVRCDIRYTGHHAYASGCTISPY


How the values were obtained:
[1] = biological target: T1, mature human LOX (LOX 36H), from construct pcLOX36-V5His (human); assay: co-immunoprecipitation (anti-V5 or anti-HA) from co-transfected Cos 7 cell lysates, Western blot
[2] = biological target: T2, mature murine LOX (LOX 27H), from construct pcLOX27-V5His (murine); assay: as above

| binding [1] | binding [2] | Binder |
| --- | --- | --- |
| binds | binds | complete form of NRAGE (NM3-HA), from construct pNM3-HA (protein, not shown: small tags and cut ends) MAQKMDCGAGLLGFQAEASVEDSALLMQTLMEAIQISEAPPTNQATAAASPQSSQPPTANEMADIQVSAAAARPKSAFKVQNATTKGPNGVYDFSQAHNAKDVPNTQPKAAFKSQNATSKGPNAAYDFSQAATTGELAANKSEMAFKAQNATTKVGPNATYNFSQSLNANDLANSRPKTPFKAWNDTTKAPTADTQTQNVNQAKMATSQADIETDPGISEPDGATAQTSADGSQAQNLESRTIIRGKRTRKINNLNVEENSSGDQRRAPLAAGTWRSAPVPVTTQNPPGAPPNVLWQTPLAWQNPSGWQNQTARQTPPARQSPPARQTPPAWQNPVAWQNPVIWPNPVIWQNPVIWPNPIVWPGPVVWPNPLAWQNPPGWQTPPGWQTPPGWQGPPDWQGPPDWPLPPDWPLPPDWPLPTDWPLPPDWIPADWPIPPDWQNLRPSPNLRPSPNSRASQNPGAAQPRDVALLQERANKLVKYLMLKDYTKVPIKRSEMLRDIIREYTDVYPEIIERACFVLEKKFGIQLKEIDKEEHLYILISTPESLAGILGTTKDTPKLGLLLVILGVIFMNGNRASEAVLWEALRKMGLRPGVRHPLLGDLRKLLTYEFVKQKYLDYRRVPNSNPPEYEFLWGLRSYHETSKMKVLRFIAEVQKRDPRDWTAQFMEAADEALDALDAAAAEAEARAEARTRMGIGDEAVSGPWSWDDIEFELLTWDEEGDFGDPWSRIPFTFWARYHQNARSRFPQTFAGPIIGPGGTASANFAANFGAIGFFWVE |
| binds | binds | NRAGE (NM7-HA), which corresponds to the IRD region, from construct pNM7-HA (protein, not shown: small tags and cut ends) WQTPLAWQNPSGWQNQTARQTPPARQSPPARQTPPAWQNPVAWQNPVIWPNPVIWQNPVIWPNPIVWPGPVVWPNPLAWQNPPGWQTPPGWQTPPGWQGPPDWQGPPDWPLPPDWPLPPDWPLPTDWPLPPDWIPADWPIPPDWQNLRP |

Reference: patent US20120225141A1
